Measured values taken from article PMC7774954, “Interactomic affinity profiling by holdup assay: Acetylation and distal residues impact the PDZome-binding specificity of PTEN phosphatase” (PLoS ONE, 2020).
Results are given in words; binding and its absence hold for the method and conditions named.

By UniProt entry, the sequences of proteins in these tests, tags left out. Where a name states a change or a piece, a line headed by the entry shows the natural chain unless it says otherwise.
UniProt P60484: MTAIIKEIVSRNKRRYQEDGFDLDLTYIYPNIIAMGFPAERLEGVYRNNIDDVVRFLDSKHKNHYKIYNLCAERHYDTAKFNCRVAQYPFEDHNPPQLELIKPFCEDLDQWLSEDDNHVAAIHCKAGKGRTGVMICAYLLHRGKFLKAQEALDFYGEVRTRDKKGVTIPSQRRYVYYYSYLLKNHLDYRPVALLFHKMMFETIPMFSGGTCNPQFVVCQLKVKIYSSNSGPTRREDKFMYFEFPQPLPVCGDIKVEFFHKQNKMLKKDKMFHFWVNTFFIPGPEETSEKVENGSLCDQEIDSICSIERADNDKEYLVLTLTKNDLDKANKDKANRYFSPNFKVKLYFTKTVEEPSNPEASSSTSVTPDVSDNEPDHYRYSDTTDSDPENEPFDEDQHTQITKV

How the values were obtained:
Assay in all cases: holdup assay; biotinylated PBM peptide on streptavidin resin, biotin resin as reference; tag-PDZ at 4 uM in crude E. coli lysate, 15 min, filtrate read by capillary electrophoresis; singlicate; BI converted into KD with the mean peptide concentration back-calculated from FP (34, 28, 25, 17 uM); LogKD is -log10 of KD in M, overall uncertainty ± 0.12; cells at the column's lower value are pairs without detected binding; only the target purified
PTEN_11 (human) = PTEN_11 (human) (UniProt P60484)
PTEN_Ac (human) = PTEN_Ac (human) (UniProt P60484)
PTEN_KR (human) = PTEN_KR (human) (UniProt P60484)
PTEN_13 (human) = PTEN_13 (human) (UniProt P60484)

Row | Binder | binding (PTEN_11 (human)) | binding (PTEN_Ac (human)) | binding (PTEN_KR (human)) | binding (PTEN_13 (human))
1 | GRIP1-7 (domain or fragment, UniProt Q9Y3R0 1004-1086) KVTLYKDSDMEDFGFSVADGLLEKGVYVKNIRPAGPGDLGGLKPYDRLLQVNHVRTRDFDCCLVVPLIAESGNKLDLVISRNP | no binding (tested: lower value) | no binding (tested: lower value) | no binding (tested: lower value) | no binding (tested: lower value)
2 | INADL-2 (domain or fragment, UniProt Q8NI35 248-328) EVELINDGSGLGFGIVGGKTSGVVVRTIVPGGLADRDGRLQTGDHILKIGGTNVQGMTSEQVAQVLRNCGNSVRMLVARDP | no binding (tested: lower value) |  | no binding (tested: lower value) | no binding (tested: lower value)
3 | FRMPD2-3 (domain or fragment, UniProt Q68DX3 1079-1167) EVKLKKNANGLGFSFVQMEKESCSHLKSDLVRIKRLFPGQPAEENGAIAAGDIILAVNGRSTEGLIFQEVLHLLRGAPQEVTLLLCRPP | no binding (tested: lower value) | no binding (tested: lower value) | no binding (tested: lower value) | no binding (tested: lower value)
4 | INADL-6 (domain or fragment, UniProt Q8NI35 1068-1160) IVEIFREPNVSLGISIVGGQTVIKRLKNGEELKGIFIKQVLEDSPAGKTNALKTGDKILEVSGVDLQNASHSEAVEAIKNAGNPVVFIVQSLS | no binding (tested: lower value) |  | no binding (tested: lower value) | no binding (tested: lower value)
5 | PDZD7-2 (domain or fragment, UniProt Q9H5P4 210-293) IVHLYTTSDDFCLGFNIRGGKEFGLGIYVSKVDHGGLAEENGIKVGDQVLAANGVRFDDISHSQAVEVLKGQTHIMLTIKETGR | no binding (tested: lower value) |  | no binding (tested: lower value) | no binding (tested: lower value)
6 | NHERF4-2 (domain or fragment, UniProt Q86UT5 223-301) LCHIVKDEGGFGFSVTHGNQGPFWLVLSTGGAAERAGVPPGARLLEVNGVSVEKFTHNQLTRKLWQSGQQVTLLVAGPE | no binding (tested: lower value) | no binding (tested: lower value) | no binding (tested: lower value) | 
7 | GRIP1-3 (domain or fragment, UniProt Q9Y3R0 252-336) LVEVAKTPGASLGVALTTSMCCNKQVIVIDKIKSASIADRCGALHVGDHILSIDGTSMEYCTLAEATQFLANTTDQVKLEILPHH | no binding (tested: lower value) | no binding (tested: lower value) | no binding (tested: lower value) | no binding (tested: lower value)
8 | GRIP1-5 (domain or fragment, UniProt Q9Y3R0 573-658) HVKLPKKHNVELGITISSPSSRKPGDPLVISDIKKGSVAHRTGTLELGDKLLAIDNIRLDNCSMEDAVQILQQCEDLVKLKIRKDE | no binding (tested: lower value) | no binding (tested: lower value) | no binding (tested: lower value) | no binding (tested: lower value)
9 | APBA3-2 (domain or fragment, UniProt O96018 485-560) TAIIHRPHAREQLGFCVEDGIICSLLRGGIAERGGIRVGHRIIEINGQSVVATPHARIIELLTEAYGEVHIKTMPA | no binding (tested: lower value) | no binding (tested: lower value) | no binding (tested: lower value) | no binding (tested: lower value)
10 | NHERF3-2 (domain or fragment, UniProt Q5T2W1 134-215) RLCYLVKEGGSYGFSLKTVQGKKGVYMTDITPQGVAMRAGVLADDHLIEVNGENVEDASHEEVVEKVKKSGSRVMFLLVDKE | no binding (tested: lower value) |  | no binding (tested: lower value) | no binding (tested: lower value)
11 | GRIP1-2 (domain or fragment, UniProt Q9Y3R0 150-238) TVEVTLHKEGNTFGFVIRGGAHDDRNKSRPVVITCVRPGGPADREGTIKPGDRLLSVDGIRLLGTTHAEAMSILKQCGQEAALLIEYDV | no binding (tested: lower value) | no binding (tested: lower value) | no binding (tested: lower value) | no binding (tested: lower value)

The remaining lines, values ahead:

Row | binding (PTEN_11 (human)) | binding (PTEN_Ac (human)) | binding (PTEN_KR (human)) | binding (PTEN_13 (human)) | Binder
12 | no binding (tested: lower value) | no binding (tested: lower value) | no binding (tested: lower value) |  | PDZD2-5 (domain or fragment, UniProt O15018 2622-2706) FIVLNRKEGSGLGFSVAGGTDVEPKSITVHRVFSQGAASQEGTMNRGDFLLSVNGASLAGLAHGNVLKVLHQAQLHKDALVVIKK
13 | no binding (tested: lower value) | no binding (tested: lower value) | no binding (tested: lower value) | no binding (tested: lower value) | FRMPD2-1 (domain or fragment, UniProt Q68DX3 775-861) RVTLKRDPHRGFGFVINEGEYSGQADPGIFISSIIPGGPAEKAKTIKPGGQILALNHISLEGFTFNMAVRMIQNSPDNIELIISQSK
14 | no binding (tested: lower value) | no binding (tested: lower value) | no binding (tested: lower value) | no binding (tested: lower value) | GRIP1-4 (domain or fragment, UniProt Q9Y3R0 472-561) EVVLTADPVTGFGIQLQGSVFATETLSSPPLISYIEADSPAERCGVLQIGDRVMAINGIPTEDSTFEEASQLLRDSSITSKVTLEIEFDV
15 | no binding (tested: lower value) |  | no binding (tested: lower value) | no binding (tested: lower value) | GRIP1-1 (domain or fragment, UniProt Q9Y3R0 53-136) VVELMKKEGTTLGLTVSGGIDKDGKPRVSNLRQGGIAARSDQLDVGDYIKAVNGINLAKFRHDEIISLLKNVGERVVLEVEYEL
16 | no binding (tested: lower value) | no binding (tested: lower value) | no binding (tested: lower value) |  | PDZD2-4 (domain or fragment, UniProt O15018 728-813) EVTLNKEPRVGLGIGACCLALENSPPGIYIHSLAPGSVAKMESNLSRGDQILEVNSVNVRHAALSKVHAILSKCPPGPVRLVIGRH
17 | no binding (tested: lower value) | no binding (tested: lower value) | no binding (tested: lower value) |  | NHERF4-3 (domain or fragment, UniProt Q86UT5 329-412) CLHLEKGPQGFGFLLREEKGLDGRPGQFLWEVDPGLPAKKAGMQAGDRLVAVAGESVEGLGHEETVSRIQGQGSCVSLTVVDPE
18 | no binding (tested: lower value) | no binding (tested: lower value) | no binding (tested: lower value) | no binding (tested: lower value) | APBA3-1 (domain or fragment, UniProt O96018 394-480) EVHLEKRRGEGLGVALVESGWGSLLPTAVIANLLHGGPAERSGALSIGDRLTAINGTSLVGLPLAACQAAVRETKSQTSVTLSIVHC
19 | no binding (tested: lower value) | no binding (tested: lower value) | no binding (tested: lower value) | no binding (tested: lower value) | INADL-1 (domain or fragment, UniProt Q8NI35 134-221) YIDIERPSTGGLGFSVVALRSQNLGKVDIFVKDVQPGSVADRDQRLKENDQILAINHTPLDQNISHQQAIALLQQTTGSLRLIVAREP
20 | no binding (tested: lower value) | no binding (tested: lower value) | no binding (tested: lower value) | no binding (tested: lower value) | APBA2-2 (domain or fragment, UniProt Q99767 659-734) TVLIKRPDLKYQLGFSVQNGIICSLMRGGIAERGGVRVGHRIIEINGQSVVATAHEKIVQALSNSVGEIHMKTMPA
21 | no binding (tested: lower value) |  | no binding (tested: lower value) | no binding (tested: lower value) | DFNB31-3 (domain or fragment, UniProt Q9P202 816-899) LVRVKKSAATLGIAIEGGANTRQPLPRIVTIQRGGSAHNCGQLKVGHVILEVNGLTLRGKEHREAARIIAEAFKTKDRDYIDFL
22 | no binding (tested: lower value) |  | no binding (tested: lower value) | no binding (tested: lower value) | INADL-10 (domain or fragment, UniProt Q8NI35 1676-1762) TVEINRELSDALGISIAGGRGSPLGDIPVFIAMIQASGVAARTQKLKVGDRIVSINGQPLDGLSHADVVNLLKNAYGRIILQVVADT
